# Measured values reported in article PMC9280481.
# Amino acid sequences for entries named in this document (tags omitted). A change or cut given only in a name is not applied to a line headed by its entry.
# UniProt Q969H0: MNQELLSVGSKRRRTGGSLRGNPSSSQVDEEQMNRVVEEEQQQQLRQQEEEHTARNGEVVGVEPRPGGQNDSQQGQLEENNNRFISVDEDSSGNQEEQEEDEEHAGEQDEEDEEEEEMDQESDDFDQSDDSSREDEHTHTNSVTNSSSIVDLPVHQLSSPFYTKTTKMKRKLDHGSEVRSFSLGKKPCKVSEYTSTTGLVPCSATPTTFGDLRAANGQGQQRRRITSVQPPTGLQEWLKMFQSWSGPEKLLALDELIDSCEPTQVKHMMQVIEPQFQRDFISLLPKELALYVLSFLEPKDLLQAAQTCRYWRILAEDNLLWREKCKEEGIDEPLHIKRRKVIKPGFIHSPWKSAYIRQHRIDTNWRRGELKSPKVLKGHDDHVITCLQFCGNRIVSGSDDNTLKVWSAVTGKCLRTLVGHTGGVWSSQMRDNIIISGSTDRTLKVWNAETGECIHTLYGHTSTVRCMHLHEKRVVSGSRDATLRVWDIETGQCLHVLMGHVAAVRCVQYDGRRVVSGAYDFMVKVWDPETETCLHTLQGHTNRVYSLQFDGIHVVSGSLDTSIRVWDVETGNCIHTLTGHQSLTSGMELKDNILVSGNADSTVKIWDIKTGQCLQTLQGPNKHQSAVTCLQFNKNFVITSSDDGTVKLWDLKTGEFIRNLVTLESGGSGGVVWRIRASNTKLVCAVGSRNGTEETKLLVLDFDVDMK
# Results are given in words; binding and its absence hold for the method and conditions named. In cells and extracts the contact can be indirect. Some entries that bind do so weakly or less than the wild type.
# T1: F-box protein 9 (FBXO9) (human (endogenous in HCC cells)) (UniProt Q9UK97)
# T1 sequence: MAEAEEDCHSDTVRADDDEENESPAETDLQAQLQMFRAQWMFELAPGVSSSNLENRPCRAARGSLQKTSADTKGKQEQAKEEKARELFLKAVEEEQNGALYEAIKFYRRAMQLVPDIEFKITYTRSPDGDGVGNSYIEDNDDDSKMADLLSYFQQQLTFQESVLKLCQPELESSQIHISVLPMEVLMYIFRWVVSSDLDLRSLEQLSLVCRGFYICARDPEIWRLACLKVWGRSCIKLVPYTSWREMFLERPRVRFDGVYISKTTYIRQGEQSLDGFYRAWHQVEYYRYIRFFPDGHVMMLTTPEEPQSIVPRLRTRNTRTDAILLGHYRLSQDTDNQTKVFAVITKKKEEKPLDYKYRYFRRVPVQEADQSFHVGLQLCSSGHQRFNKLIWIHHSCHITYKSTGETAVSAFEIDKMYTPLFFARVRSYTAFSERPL
# Experiments:
# [1] = target: T1, F-box protein 9 (FBXO9) (human (endogenous in HCC cells)); experiment: co-IP; endogenous proteins in HCC cells; RIPA lysis buffer; lysates immunoprecipitated with antibodies (anti-FBXO9, anti-mTOR or anti-FBXW7) and protein A/G agarose beads overnight at 4°C; western blotting
# [2] = target: F-box and WD repeat domain containing 7 (FBXW7) (human (endogenous in HCC cells)) (UniProt Q969H0); experiment: as above
binding [1],binding [2],Molecule
binds,–,F-box and WD repeat domain containing 7 (FBXW7) (from UniProt Q969H0-1 1-707)
–,binds,"F-box protein 9 (FBXO9) (protein, UniProt Q9UK97-2 1-437) MAEAEEDCHSDTVRADDDEENESPAETDLQAQLQMFRAQWMFELAPGVSSSNLENRPCRAARGSLQKTSADTKGKQEQAKEEKARELFLKAVEEEQNGALYEAIKFYRRAMQLVPDIEFKITYTRSPDGDGVGNSYIEDNDDDSKMADLLSYFQQQLTFQESVLKLCQPELESSQIHISVLPMEVLMYIFRWVVSSDLDLRSLEQLSLVCRGFYICARDPEIWRLACLKVWGRSCIKLVPYTSWREMFLERPRVRFDGVYISKTTYIRQGEQSLDGFYRAWHQVEYYRYIRFFPDGHVMMLTTPEEPQSIVPRLRTRNTRTDAILLGHYRLSQDTDNQTKVFAVITKKKEEKPLDYKYRYFRRVPVQEADQSFHVGLQLCSSGHQRFNKLIWIHHSCHITYKSTGETAVSAFEIDKMYTPLFFARVRSYTAFSERPL"
